Patent US20220251217A1 (University of California, published 2022)
Results are given in words; binding and its absence hold for the method and conditions named.

Molecular target: Fc protein (Fc-domain-only) (human)
Test: flow cytometry of nanobody-displaying yeast with recombinant Fc protein

binding	Binder
no binding	Nb.B5 (VHH) VHH: QVQLQESGGGLVQAGGSLRLSCAASGTIFPVDYMGWYRQAPGKERELVAGINYGSNTYYADSVKGRFTISRDNAKNTVYLQMNSLKPEDTAVYYCAAWQPEGYAVDFYHPYWGQGTQVTVSS
no binding (tested: 10 nM)	Nb.C2 (VHH, also called yeast clone Nb.C2) VHH: QVQLQESGGGLVQAGGSLRLSCAASGTIFDWYSMGWYRQAPGKERELVAGIDTGANTYYADSVKGRFTISRDNAKNTVYLQMNSLKPEDTAVYYCAAHDDGDPWHVYWGQGTQVTVSS
